Test results reported in the supplement of paper PMC12823440, “Inhibitors supercharge kinase turnover through native proteolytic circuits” (Nature, 2025).
Structures can show the parent of a compound that is named as a salt. The list shows a part of the results. Hit calls seldom repeat between salt and free forms of one compound.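 Kinases were expressed as nanoluciferase fusions in K562 cells and luminescence was read every 4 h between 2 and 18 h as percent of control, DMSO set to 100% and a positive control to 0%. A time point counts as decreased when the signal drops significantly (2 sigma). The hit call is the authors' own, does not follow from the count of time points alone, and its rule is not shown.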

By UniProt entry, the sequences of proteins in these tests, tags left out. Where a name states a change or a piece, a line headed by the entry shows the natural chain unless it says otherwise.
UniProt Q9BUB5: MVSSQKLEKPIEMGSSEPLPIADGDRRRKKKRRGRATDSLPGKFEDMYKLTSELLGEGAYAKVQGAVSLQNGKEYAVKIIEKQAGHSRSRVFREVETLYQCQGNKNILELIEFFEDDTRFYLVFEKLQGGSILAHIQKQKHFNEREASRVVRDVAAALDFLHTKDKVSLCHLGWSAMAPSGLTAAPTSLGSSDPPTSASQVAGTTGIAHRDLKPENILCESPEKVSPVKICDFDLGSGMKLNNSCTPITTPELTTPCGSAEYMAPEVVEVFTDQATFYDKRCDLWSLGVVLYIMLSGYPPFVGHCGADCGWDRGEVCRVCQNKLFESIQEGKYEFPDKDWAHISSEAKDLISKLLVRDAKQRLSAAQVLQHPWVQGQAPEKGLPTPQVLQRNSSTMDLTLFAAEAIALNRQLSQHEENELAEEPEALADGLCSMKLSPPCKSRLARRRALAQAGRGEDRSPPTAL

Each molecule was assayed against MKNK1 (UniProt Q9BUB5) (assay: kinase-Nluc reporter destabilization hit call (1 = scored as downregulated) (binary); higher = compound decreases kinase abundance). Details: K562; 2-18 h.

kinase-Nluc reporter destabilization hit call, inactive:
CN(C)c1nc2c(Br)c(Br)c(Br)c(Br)c2n1CC(=O)O (10 µM) 0
COc1cc(N2CCC(N(C)C)CC2)ccc1Nc1ncc(Cl)c(Nc2ccccc2P(C)(C)=O)n1 (2.5 µM) 0
CC(C)C[C@H](NC(=O)[C@H](CCCCN)NC(=O)[C@H](CO)NC(=O)[C@@H](N)CC(C)C)C(N)=O [LSKL, Inhibitor of Thrombospondin (TSP-1) (TFA)] (10 µM) 0
O=C(Nc1ccc(Cl)c(Cl)c1)Nc1ccc2nnsc2c1 (10 µM) 0
CC(C)Oc1ccc(-c2cnc3c(-c4ccnc5ccccc45)cnn3c2)cc1 (10 µM) 0
O=C(CCCCCn1cc(Nc2ncc(Cl)c(Nc3ccc(Cl)cc3)n2)cn1)NO (2.5 µM) 0
CC(=O)NCCc1c[nH]c2ccc(O)cc12 [N-Acetyl-5-hydroxytryptamine] (10 µM) 0
O=C(c1ccc(Nc2nccc(-c3cc4ccccc4s3)n2)cc1)N1CCC(N2CCCC2)CC1 (2.5 µM) 0
C=CC(=O)N1CCC[C@@H](n2nc(C(=O)Nc3ccc(CC(=O)N(C)C)c(C)c3C)c3c(N)ncnc32)C1 (10 µM) 0
CC(CCc1ccccn1)(CCc1ccccn1)C(=O)c1ccccc1 (10 µM) 0
CC[C@@H]1[C@H](F)C(=O)N[C@@H]1COc1nccc2cc(C(N)=O)c(OC)cc12 (10 µM) 0
Nc1cc(C(F)F)c(-c2nc(N3C4CCC3COC4)nc(N3C4CCC3COC4)n2)cn1 (2.5 µM) 0
Oc1ccccc1C(=S)N1CCCC1 (10 µM) 0
COc1ccc(-n2c(C)c([N+](=O)[O-])c3ccc(O)cc32)cc1 (10 µM) 0
CN(C)Cc1cccc(N=C(c2ccccc2)c2c(O)[nH]c3cc(C(N)=O)ccc23)c1 (10 µM) 0
CCCCNC(=N)NC(=N)N [Buformin (hydrochloride)] (2.5 µM) 0
O=c1ccoc2cc(O)ccc12 [7-Hydroxy-4H-chromen-4-one] (10 µM) 0
C=CC(=O)Nc1cccc(-n2c(=O)cc(C)c3cnc(Nc4ccc(OCCN(C)C)cc4OC)nc32)c1 (10 µM) 0
O=c1[nH]ccc2cc(OC3CCNCC3)ccc12 (10 µM) 0
CCCCOc1ccc(CC/C=C2\SC(=O)N(CCN)C2=O)cc1 [K145 (hydrochloride)] (2.5 µM) 0
CC(C)(O)[C@@H]1CC[C@](C)([C@H]2[C@@H](O)C[C@@]3(C)[C@@H]4C[C@H](O[C@@H]5O[C@H](CO)[C@@H](O)[C@H](O)[C@H]5O)[C@H]5C(C)(C)[C@@H](O[C@@H]6OC[C@@H](O)[C@H](O)[C@H]6O[C@@H]6O[C@H](CO)[C@@H](O)[C@H](O)[C@H]6O)CC[C@@]56C[C@@]46CC[C@]23C)O1 [Astragaloside VI] (10 µM) 0
O=C1NC(=O)C(c2cn(-c3ccccc3)nc2-c2ccc(F)cc2)N1 (stereo unspecified) (10 µM) 0
C[C@@H]1COCCN1c1cc(C2([S@](C)(=N)=O)CC2)nc(-c2cc[nH]c3nccc2-3)n1 [Ceralasertib] (2.5 µM) 0
CN(C)Cc1cccc(N=C(c2ccccc2)c2c(O)[nH]c3cc(C(=O)N(C)C)ccc23)c1 (10 µM) 0
CN1CCN(CCCNc2ncc(Cl)c(-c3cc4c(C(=O)NC5CC5)cccc4s3)n2)CC1 (10 µM) 0
CC[C@H](Nc1ncnc2[nH]cnc12)c1oc2ccccc2c(=O)c1-c1cccc(F)c1 [Tenalisib] (10 µM) 0
O=C1NC(=O)C(c2cnc3ccccn23)=C1c1cn2c3c(cc(F)cc13)CN(C(=O)N1CCCCC1)CC2 (2.5 µM) 0
COc1c(C)c(C(=O)c2ccc(N)c(C(=O)O)c2)n2ccccc12 (10 µM) 0
N#Cc1ccc(-c2c(-c3ncn[nH]3)sc(N3CCOCC3)c2C#N)c(F)c1 (10 µM) 0
N#C/C(=C(/N)Sc1ccc(N)cc1)c1ccccc1C(F)(F)F (10 µM) 0
O=C(Nc1ccc(Cl)cc1)C1CCCN(C(=O)c2cccc(-c3ccco3)c2)C1 (stereo unspecified) (2.5 µM) 0

Arranged by number of heavy atoms (falling): part of the list above
kinase-Nluc reporter destabilization hit call, inactive:
CC(C)(O)[C@@H]1CC[C@](C)([C@H]2[C@@H](O)C[C@@]3(C)[C@@H]4C[C@H](O[C@@H]5O[C@H](CO)[C@@H](O)[C@H](O)[C@H]5O)[C@H]5C(C)(C)[C@@H](O[C@@H]6OC[C@@H](O)[C@H](O)[C@H]6O[C@@H]6O[C@H](CO)[C@@H](O)[C@H](O)[C@H]6O)CC[C@@]56C[C@@]46CC[C@]23C)O1 [Astragaloside VI] (10 µM) 0
CCCCOc1ccc(CC/C=C2\SC(=O)N(CCN)C2=O)cc1 [K145 (hydrochloride)] (2.5 µM) 0
CCCCNC(=N)NC(=N)N [Buformin (hydrochloride)] (2.5 µM) 0
